One assay concerns the target RuvBL2ΔE134-E237 (UniProt Q9Y230). The experiment in a line: cross-linking; XL-MS: R2SP with 25, 100, 400 molar excesses of DSBU (45 min, 18 °C), triplicates, Trypsin/Lys-C digestion, nanoLC-MS/MS, XlinkX; cross-links kept if in 2 of 3 replicates; both purified.
The next assay has as its target RuvBL1ΔT127-E233 (UniProt Q9Y265). The description is as above.
The next assay addresses T1, PIH1D2(231-315) (UniProt Q8WWB5).
T1 sequence: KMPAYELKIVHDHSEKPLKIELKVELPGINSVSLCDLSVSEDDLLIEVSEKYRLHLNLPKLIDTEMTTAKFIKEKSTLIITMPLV
The experiment in a line: SEC; co-expressed in E. coli; StrepTactin XT (eluted with 50 mM biotin), then Superdex 200 16/60 in 20 mM Hepes pH 8, 300 mM NaCl, 0.5 mM TCEP. A general note: In gel filtration, larger molecules generally elute earlier.

By UniProt entry, the sequences of proteins in these tests, tags left out. Where a name states a change or a piece, a line headed by the entry shows the natural chain unless it says otherwise. Chains listed by the source or under a name are the forms on record and can include a tag or linker.
RuvBL2ΔE134-E237 (Q9Y230, form named): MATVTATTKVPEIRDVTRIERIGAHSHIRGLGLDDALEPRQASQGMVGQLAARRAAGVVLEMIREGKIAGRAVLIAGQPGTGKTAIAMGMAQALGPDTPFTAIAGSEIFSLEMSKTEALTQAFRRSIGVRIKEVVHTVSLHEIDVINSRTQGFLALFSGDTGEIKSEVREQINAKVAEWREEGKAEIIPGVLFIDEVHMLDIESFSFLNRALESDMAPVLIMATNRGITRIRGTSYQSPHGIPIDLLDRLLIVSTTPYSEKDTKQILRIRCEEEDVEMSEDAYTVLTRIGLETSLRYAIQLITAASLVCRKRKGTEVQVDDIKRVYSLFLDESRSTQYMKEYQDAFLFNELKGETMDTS
RuvBL1ΔT127-E233 (Q9Y265, form named): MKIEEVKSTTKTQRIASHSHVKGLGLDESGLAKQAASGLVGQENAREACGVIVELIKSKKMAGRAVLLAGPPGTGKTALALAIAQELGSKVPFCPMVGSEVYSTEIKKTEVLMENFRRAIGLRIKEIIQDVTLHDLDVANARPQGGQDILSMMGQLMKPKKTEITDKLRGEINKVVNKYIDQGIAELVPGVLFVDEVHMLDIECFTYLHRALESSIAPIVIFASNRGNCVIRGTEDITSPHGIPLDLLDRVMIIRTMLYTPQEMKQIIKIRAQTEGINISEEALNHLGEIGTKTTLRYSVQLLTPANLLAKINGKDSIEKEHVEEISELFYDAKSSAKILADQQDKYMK

For assay [1], the target named is RuvBL1ΔT127-E233-RuvBL2ΔE134-E237 complex (UniProt Q9Y265). The assay can be described thus: cross-linking; R2SP at 1 mg/mL in 20 mM Hepes, 150 mM NaCl, pH 8 with DSSO or DSBU at 25 to 400 molar excess, 45 min at room temperature; read by denaturing mass photometry; both purified.
Assay [2] has the same target. The experiment in a line: SEC; pure R1R2 mixed with excess pure SPAG1/PIH1D2 at 1:4 over night at 4 °C; Superose 6 16/60 in 20 mM Hepes pH 8, 150 mM NaCl, 2 mM MgCl2, 0.5 mM TCEP; both purified.

Results are given in words; binding and its absence hold for the method and conditions named. Some results given as binding are weak or reduced against the parent protein; the word gives no strength.

B1: SPAG1(622-926) (domain or fragment, UniProt Q07617 622-926)
chain: TFKALKEEGNQCVNDKNYKDALSKYSECLKINNKECAIYTNRALCYLKLCQFEEAKQDCDQALQLADGNVKAFYRRALAHKGLKNYQKSLIDLNKVILLDPSIIEAKMELEEVTRLLNLKDKTAPFNKEKERRKIEIQEVNEGKEEPGRPAGEVSMGCLASEKGGKSSRSPEDPEKLPIAKPNNAYEFGQIINALSTRKDKEACAHLLAITAPKDLPMFLSNKLEGDTFLLLIQSLKNNLIEKDPSLVYQHLLYLSKAERFKMMLTLISKGQKELIEQLFEDLSDTPNNHFTLEDIQALKRQYEL
Take B1: the binding entry with RuvBL2ΔE134-E237, with RuvBL1ΔT127-E233 and in the assay with PIH1D2(231-315) was “binds” each time.

B2: SPAG1(622-926)/PIH1D2(231-315) complex (complex, UniProt Q07617 622-926; Q8WWB5 231-315)
chain 1: TFKALKEEGNQCVNDKNYKDALSKYSECLKINNKECAIYTNRALCYLKLCQFEEAKQDCDQALQLADGNVKAFYRRALAHKGLKNYQKSLIDLNKVILLDPSIIEAKMELEEVTRLLNLKDKTAPFNKEKERRKIEIQEVNEGKEEPGRPAGEVSMGCLASEKGGKSSRSPEDPEKLPIAKPNNAYEFGQIINALSTRKDKEACAHLLAITAPKDLPMFLSNKLEGDTFLLLIQSLKNNLIEKDPSLVYQHLLYLSKAERFKMMLTLISKGQKELIEQLFEDLSDTPNNHFTLEDIQALKRQYEL
chain 2: KMPAYELKIVHDHSEKPLKIELKVELPGINSVSLCDLSVSEDDLLIEVSEKYRLHLNLPKLIDTEMTTAKFIKEKSTLIITMPLV
As for B2, the binding result in assay [1] and in assay [2] was “binds” in each case.

The record behind these values is publication PMC11045720.
